Experimental data: PubChem BioAssay AID720710 (VTT Finland, 2013)

- Test: 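Genes whose loss lowers DNA synthesis when an oncogene drives replication stress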 (primary screen)
- System: human U-2 OS bone cancer cells, parental and a cyclin E (CCNE1) overexpressing line
- Reagent: single siRNA against human genes, 1 µM siRNA in the printed spot mix
- Timing: 67 h
- Challenge: half the arrays: hydroxyurea 2 mM for 16 h, then 3 h recovery; other arrays untreated
- Measurement: 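EdU click signal imaged per DAPI-stained nucleus at 67 h; each spot divided by its subgrid median, then z-scored relative to non-targeting control spots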
- Reading the numbers: EdU z-score, cyclin E line, hydroxyurea and EdU z-score, parental, hydroxyurea and EdU z-score, cyclin E line, untreated: higher = more DNA synthesis than non-targeting controls
The deposit covers about 1,380 reagents; below is a random part of them. 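One array per condition without replicates; hydroxyurea arrays received 2 mM for 16 h plus 3 h recovery.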 The numbers tell different reagents against one gene apart. Not all columns of the deposit are shown. No sequences are given here.

gene symbol	siRNA no.	EdU z-score, cyclin E line, hydroxyurea	EdU z-score, parental, hydroxyurea	EdU z-score, cyclin E line, untreated
H2BC17	1	-2.34	-3.45	-1.95
H2BC17	2	-0.27	-1.03	0.273
MYC	1	-0.761	0.294	-3.15
MYC	2	-0.432	0.516	-0.834
HELZ	1	-0.859	-0.0485	-3.7
HELZ	2	0.195	0.0954	-2.69
KAT8	1	-1.67	-0.409	-0.704
KAT8	2	0.359	2.02	1.89
ALKBH1	1	-1.93	-1.18	-0.861
ALKBH1	2	-0.829	-0.957	0.029
GTF2H2	1	-0.647	-0.384	-4.85
GTF2H2	2	-0.402	0.328	-0.453
PPARGC1A	1	-1.22	-1.57	-3.49
PPARGC1A	2	-0.13	2.05	-1.28
SOX15	1	0.612	0.958	-1.68
SOX15	2	0.809	1.16	-1.36
RAD50	1	-1.33	-6.3	-0.494
RAD50	2	1.36	1.21	-0.485
H2BC3	1	-1.93	-1.31	-1.5
H2BC3	2	0.452	0.836	-1.06
LOC728340	1	-0.614	-1.17	-3.69
LOC728340	2	0.615	3.09	-1.32
SMC3	1	0.485	-3.45	-0.717
SMC3	2	0.741	1.4	-0.612
H4C8	1	-0.713	-0.451	-0.489
H4C8	2	2.56	3.03	0.41
TERT	1	-0.493	-4.83	-2.45
TERT	2	0.268	2.52	-0.226
CBX7	1	-1.42	-1.79	-6.58
CBX7	2	-0.398	3.66	-2.04
KDM3A	1	-0.702	-0.329	-2.43
KDM3A	2	-0.352	1.34	0.0514
TWNK	1	-0.644	0.451	-2.67
TWNK	2	3.54	0.523	-0.366
H2BC11	1	0.323	-0.503	-0.853
H2BC11	2	1.68	0.63	1.22
KMT2A	1	-1.57	-3.34	-1.61
KMT2A	2	0.813	4.59	-0.259
SLK	1	-2.68	-1.19	-1.65
SLK	2	1.24	1.56	-0.0573
CSNK1D	1	-1.52	-2.15	-2.84
CSNK1D	2	-0.485	-1.73	-0.406
DIAPH1	1	-1.75	-0.849	-0.839
DIAPH1	2	-0.445	2.26	0.426
APTX	1	-0.0589	0.922	-2.2
APTX	2	0.975	2.26	-0.616
CDK2	1	-2.22	-1.65	-1.84
CDK2	2	-1.21	-1.58	-1.65
DCLRE1C	1	-1.76	-0.422	-2.26
DCLRE1C	2	-1.22	2.78	-1.17
SMARCD3	1	-2.35	-2.66	-2.08
SMARCD3	2	-1.38	-0.79	-1.01
NONO	1	-1.74	1.18	-0.604
NONO	2	1.51	4.01	1.36
ARID1A	1	-0.64	2.18	0.0499
ARID1A	2	-0.55	2.29	0.205
WRN	1	0.475	-0.898	-0.799
WRN	2	1.48	2.16	-0.145
